Assay results published in article PMC11862893.

Chains of the proteins cited; added tags and fusions are not shown. Lines headed by an entry give the natural chain unless they say otherwise; changes in a name come on top. Residues count along the entry.
UniProt P18084, residues 24-799: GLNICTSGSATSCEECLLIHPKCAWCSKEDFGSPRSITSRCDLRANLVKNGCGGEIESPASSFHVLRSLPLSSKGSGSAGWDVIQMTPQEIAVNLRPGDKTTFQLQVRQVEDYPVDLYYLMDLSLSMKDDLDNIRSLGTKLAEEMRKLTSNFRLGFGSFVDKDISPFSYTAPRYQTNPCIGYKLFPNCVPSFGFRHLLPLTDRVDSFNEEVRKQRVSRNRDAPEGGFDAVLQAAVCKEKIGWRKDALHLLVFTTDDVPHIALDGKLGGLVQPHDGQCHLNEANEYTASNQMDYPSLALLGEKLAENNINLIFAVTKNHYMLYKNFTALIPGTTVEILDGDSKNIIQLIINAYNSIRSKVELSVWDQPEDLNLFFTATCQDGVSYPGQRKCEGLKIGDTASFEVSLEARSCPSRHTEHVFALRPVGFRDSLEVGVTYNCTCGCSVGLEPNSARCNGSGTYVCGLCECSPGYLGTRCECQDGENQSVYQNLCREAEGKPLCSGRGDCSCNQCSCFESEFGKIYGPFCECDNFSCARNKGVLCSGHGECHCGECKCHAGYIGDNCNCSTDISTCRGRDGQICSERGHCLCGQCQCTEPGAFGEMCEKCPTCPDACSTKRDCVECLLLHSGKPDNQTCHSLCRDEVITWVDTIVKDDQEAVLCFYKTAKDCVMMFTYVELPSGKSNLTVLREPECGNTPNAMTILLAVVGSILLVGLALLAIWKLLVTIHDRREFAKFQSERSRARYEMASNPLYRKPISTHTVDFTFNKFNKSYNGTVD
UniProt Q8NAU1: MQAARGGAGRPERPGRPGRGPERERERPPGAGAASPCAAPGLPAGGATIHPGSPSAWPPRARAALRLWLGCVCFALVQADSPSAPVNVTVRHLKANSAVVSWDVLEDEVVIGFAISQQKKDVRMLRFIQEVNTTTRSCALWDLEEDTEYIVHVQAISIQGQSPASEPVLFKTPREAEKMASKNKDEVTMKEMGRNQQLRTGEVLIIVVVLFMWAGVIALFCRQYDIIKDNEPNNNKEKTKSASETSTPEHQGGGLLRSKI

Biological target: integrin β5/ITGB5 (human (endogenous in HK-2)) (UniProt P18084)
Assay: co-IP; HK-2 cells (TECs) treated with recombinant irisin, lysed in modified RIPA buffer; lysate with 4 µg anti-integrin αV or anti-integrin β5 antibody and protein A/G-agarose beads overnight at 4°C, five washes; immunoblot for irisin/FNDC5, integrin αV and integrin β5; IgG control; only the binder purified

Substance: irisin (from UniProt Q8NAU1) (ligand)
- binding: binds

Results are given in words; binding and its absence hold for the method and conditions named. In cells and extracts the contact can be indirect. A result given as binding can be weak or reduced; the word gives no strength.
